Reference: patent US6384052B1, “Anticoccidial compounds” (Merck & Co., Inc., priority 1999, dated 2002)
Some entries share one result that the patent states for a list of compounds.

Test system: Eimeria acervulina, E. tenella
Assay: Anticoccidiosis assay (oocyst production in infected chickens on medicated diet)
Format: in vivo, White Leghorn chickens
Conditions: chickens infected with E. acervulina or E. tenella
Method: Compound of the present invention and 2-(4-fluorophenyl)-5-(N-methylpiperidin-4-yl)-3-(4-pyridyl)pyrrole were evaluated in anticoccidiosis assay and toxicology studies. In these studies, medicated diets were prepared by dissolving the proper quantity of the test compound in dimethylsulfoxide or acetone, mixing the resultant solution into a few grams of the basal diet, and then placing the mixture under a fume hood for dehydration. The dry mixture is made into a uniform premix with an electric grinder, and then blended with the desired quantity of basal diet for the final formulation in a commercial bowl mixer.
One-day-old White Leghorn chickens are obtained from a commercial hatchery and acclimated in a holding room. At three days of age the test animals are selected by weight, wingbanded, and randomly placed on medicated or control diets for the duration of the experiment. One or two replicates of two birds are utilized per treatment. Following 24 h premedication, in each replicate one bird is infected with Eimeria acervulina, the other bird is infected with E. tenella. Both strains of Eimeria are sensitive to all anticoccidial products, and have been maintained in laboratory conditions for over 25 years. The inocula consist of sporulated oocysts in tap water suspensions, administered at a dose rate of 0.25 ml per bird. The inocula levels are selected by previous dose titrations to provide a low to moderate level of infection. The E. acervulina portion of the experiment is terminated on Day 5, the E. tenella on Day 6 post infection. The measured parameters are weight gain, feed consumption and oocyst production. E. tenella lesion scores are also recorded for background information. […] The same numerical categories in weight gain and feed consumption differentiate among treatments with good, fair or poor productivity.

Compound | anticoccidial activity (reduction in oocyst production) (50 ppm in diet) | anticoccidial activity (reduction in oocyst production) (75 ppm in diet)
CCN1CCC(c2cc(-c3ccncc3)c(-c3ccc(F)cc3)[nH]2)CC1 [2-(4-fluorophenyl)-5-(N-ethylpiperidin-4-yl)-3-(4-pyridyl)pyrrole] | partially active (those with 50-79% are considered partially active) | partially active (those with 50-79% are considered partially active)
CN1CCC(c2cc(-c3ccncc3)c(-c3ccc(F)cc3)[nH]2)CC1 [2-(4-fluorophenyl)-5-(N-methylpiperidin-4-yl)-3-(4-pyridyl)pyrrole] | partially active (those with 50-79% are considered partially active) | partially active (those with 50-79% are considered partially active)
